Some of the results follow.
Assays:
Assay in all cases: log2 fold change, soluble protein after heating vs DMSO (PISA); higher = thermal stabilisation; K562 lysate, 10 uM; active = over 0.2 and 3.5 SD of the protein, either way, in both replicates (recomputed)
[1] = compound: NCC(=O)Nc1ccc(-n2nc(C(F)(F)F)cc2-c2ccc3c(ccc4ccccc43)c2)cc1
Procedure, shortened: (§1)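 K562 pellets were dounce-homogenised in PBS pH 7.4 with 1 mM MgCl2, and the crude extract at 1 mg/mL protein was treated with 10 μM compound for 30 min. Aliquots were heated for 3 min across 48°C-58°C, pooled, and brought to 0.5% NP-40 at 4°C; soluble protein was the supernatant after 21,000xg for 90 min. Soluble protein was quantified by TMTpro 16plex LC-MS/MS with channel sums equalised, and reported as log2 fold change in thermal stability against DMSO controls, with values from duplicates.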

Amino acid sequences for entries named in this document (tags omitted). A change or cut given only in a name is not applied to a line headed by its entry.
UniProt A4D1E9: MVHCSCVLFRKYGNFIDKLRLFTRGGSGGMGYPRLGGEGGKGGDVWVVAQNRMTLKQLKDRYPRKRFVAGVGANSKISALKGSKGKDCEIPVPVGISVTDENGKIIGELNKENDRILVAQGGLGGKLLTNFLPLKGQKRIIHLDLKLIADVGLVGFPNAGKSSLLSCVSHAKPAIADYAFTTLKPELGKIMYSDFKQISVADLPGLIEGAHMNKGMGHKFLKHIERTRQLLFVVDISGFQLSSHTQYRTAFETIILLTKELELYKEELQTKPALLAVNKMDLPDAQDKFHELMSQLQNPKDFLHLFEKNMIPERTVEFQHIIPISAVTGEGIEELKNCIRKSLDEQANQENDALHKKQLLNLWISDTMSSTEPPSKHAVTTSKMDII
UniProt Q8IYU2: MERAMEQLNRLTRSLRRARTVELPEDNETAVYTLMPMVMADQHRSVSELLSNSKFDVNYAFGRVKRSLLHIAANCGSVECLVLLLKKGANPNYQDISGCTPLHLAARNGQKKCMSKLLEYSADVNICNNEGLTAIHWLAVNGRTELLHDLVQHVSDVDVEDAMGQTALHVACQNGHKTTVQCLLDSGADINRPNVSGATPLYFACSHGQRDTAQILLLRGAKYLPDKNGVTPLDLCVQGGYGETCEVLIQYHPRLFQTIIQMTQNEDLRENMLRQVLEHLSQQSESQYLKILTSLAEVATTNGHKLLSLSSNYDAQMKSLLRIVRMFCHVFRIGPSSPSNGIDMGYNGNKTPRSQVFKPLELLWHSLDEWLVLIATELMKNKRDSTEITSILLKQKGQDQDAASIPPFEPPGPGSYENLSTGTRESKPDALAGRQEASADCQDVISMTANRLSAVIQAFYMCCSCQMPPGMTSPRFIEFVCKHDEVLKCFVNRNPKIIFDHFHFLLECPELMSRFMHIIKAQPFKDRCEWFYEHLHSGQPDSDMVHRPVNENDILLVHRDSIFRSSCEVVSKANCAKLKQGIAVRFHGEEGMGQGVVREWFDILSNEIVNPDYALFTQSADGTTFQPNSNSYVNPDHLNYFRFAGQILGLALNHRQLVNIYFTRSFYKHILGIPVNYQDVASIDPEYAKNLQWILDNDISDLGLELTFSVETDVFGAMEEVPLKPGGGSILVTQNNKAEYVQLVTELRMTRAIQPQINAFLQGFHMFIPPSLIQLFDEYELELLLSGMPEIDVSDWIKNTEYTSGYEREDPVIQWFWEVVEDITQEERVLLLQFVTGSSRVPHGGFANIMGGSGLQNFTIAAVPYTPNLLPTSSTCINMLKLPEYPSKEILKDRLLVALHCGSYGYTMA
UniProt Q12849: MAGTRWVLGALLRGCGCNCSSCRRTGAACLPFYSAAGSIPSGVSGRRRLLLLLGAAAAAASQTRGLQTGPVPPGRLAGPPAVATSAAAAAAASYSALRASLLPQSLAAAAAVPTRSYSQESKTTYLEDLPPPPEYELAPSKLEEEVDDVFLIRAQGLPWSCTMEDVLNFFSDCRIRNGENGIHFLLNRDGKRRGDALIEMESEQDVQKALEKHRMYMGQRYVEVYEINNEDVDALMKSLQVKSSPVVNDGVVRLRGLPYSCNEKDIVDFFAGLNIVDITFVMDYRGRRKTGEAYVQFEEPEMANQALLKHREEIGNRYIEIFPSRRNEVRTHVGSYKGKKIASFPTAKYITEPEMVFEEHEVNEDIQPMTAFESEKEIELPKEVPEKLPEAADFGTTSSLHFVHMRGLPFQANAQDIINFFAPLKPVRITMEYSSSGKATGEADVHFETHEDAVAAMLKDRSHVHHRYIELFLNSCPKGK
UniProt P16401, whole entry, looked up: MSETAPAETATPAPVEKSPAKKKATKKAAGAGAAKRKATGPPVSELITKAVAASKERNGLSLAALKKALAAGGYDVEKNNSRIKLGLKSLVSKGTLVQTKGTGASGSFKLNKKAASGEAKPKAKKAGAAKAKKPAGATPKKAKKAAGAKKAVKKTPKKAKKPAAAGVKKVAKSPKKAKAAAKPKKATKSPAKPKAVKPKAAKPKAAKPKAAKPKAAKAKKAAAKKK
UniProt Q9BQ67, whole entry, looked up: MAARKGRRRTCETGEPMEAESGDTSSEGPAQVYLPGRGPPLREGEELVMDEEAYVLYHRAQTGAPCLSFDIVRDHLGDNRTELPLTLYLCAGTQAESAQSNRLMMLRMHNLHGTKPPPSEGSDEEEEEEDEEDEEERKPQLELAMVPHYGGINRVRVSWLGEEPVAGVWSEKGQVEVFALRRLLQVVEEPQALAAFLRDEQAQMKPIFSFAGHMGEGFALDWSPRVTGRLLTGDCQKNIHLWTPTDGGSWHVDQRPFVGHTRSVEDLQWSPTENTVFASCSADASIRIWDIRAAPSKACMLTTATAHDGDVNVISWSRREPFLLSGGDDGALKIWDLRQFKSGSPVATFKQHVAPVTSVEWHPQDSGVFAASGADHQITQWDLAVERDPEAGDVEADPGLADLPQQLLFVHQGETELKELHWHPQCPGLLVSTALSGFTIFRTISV
UniProt O00165, whole entry, looked up: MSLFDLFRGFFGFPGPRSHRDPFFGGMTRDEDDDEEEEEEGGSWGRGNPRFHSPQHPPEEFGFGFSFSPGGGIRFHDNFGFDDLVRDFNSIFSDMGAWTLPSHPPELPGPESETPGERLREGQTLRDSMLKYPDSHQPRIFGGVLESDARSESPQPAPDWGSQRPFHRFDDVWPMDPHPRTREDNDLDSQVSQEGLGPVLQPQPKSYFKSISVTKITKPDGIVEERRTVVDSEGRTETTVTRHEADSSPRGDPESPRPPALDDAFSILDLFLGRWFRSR
UniProt P78417: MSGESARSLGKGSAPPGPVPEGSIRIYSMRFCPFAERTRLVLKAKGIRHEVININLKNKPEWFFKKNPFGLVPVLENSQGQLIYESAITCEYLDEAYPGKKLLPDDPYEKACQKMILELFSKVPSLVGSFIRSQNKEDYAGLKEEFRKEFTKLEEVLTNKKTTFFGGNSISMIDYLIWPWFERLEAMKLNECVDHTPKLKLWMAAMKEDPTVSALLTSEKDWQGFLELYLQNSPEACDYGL
UniProt Q969Y2: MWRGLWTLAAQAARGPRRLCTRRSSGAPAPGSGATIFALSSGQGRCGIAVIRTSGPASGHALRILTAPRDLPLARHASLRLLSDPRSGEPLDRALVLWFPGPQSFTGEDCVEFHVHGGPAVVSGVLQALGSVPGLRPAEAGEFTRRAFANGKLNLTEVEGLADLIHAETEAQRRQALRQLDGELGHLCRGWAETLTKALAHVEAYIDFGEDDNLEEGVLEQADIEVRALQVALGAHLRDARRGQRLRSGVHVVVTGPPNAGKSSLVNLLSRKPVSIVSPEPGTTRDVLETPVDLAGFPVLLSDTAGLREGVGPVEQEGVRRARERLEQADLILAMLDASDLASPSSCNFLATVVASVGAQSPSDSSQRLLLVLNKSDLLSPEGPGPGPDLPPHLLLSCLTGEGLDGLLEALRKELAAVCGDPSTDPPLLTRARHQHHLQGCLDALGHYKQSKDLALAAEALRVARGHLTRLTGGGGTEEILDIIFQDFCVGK
UniProt P0C0S5, whole entry, looked up: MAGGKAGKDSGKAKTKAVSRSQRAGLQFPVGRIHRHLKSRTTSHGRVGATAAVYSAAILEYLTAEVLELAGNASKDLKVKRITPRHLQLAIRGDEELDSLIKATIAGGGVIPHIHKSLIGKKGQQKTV
UniProt P09105: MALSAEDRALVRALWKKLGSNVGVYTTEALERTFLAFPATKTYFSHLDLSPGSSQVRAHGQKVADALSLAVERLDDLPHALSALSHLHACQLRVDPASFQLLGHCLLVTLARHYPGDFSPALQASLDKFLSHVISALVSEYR
UniProt P14317: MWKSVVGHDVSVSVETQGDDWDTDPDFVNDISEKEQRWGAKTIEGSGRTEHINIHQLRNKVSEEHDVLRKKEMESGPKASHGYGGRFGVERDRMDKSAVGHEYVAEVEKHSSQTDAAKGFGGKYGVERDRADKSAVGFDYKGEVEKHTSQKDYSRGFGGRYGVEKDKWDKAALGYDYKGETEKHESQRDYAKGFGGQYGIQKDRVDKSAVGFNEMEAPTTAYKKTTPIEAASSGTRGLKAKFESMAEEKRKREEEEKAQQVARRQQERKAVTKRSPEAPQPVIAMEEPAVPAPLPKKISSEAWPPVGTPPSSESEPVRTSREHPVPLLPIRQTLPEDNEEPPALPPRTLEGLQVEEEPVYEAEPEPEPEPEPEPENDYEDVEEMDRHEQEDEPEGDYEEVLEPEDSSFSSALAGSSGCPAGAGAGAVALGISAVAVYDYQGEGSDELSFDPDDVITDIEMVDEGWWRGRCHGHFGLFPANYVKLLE
UniProt P29084: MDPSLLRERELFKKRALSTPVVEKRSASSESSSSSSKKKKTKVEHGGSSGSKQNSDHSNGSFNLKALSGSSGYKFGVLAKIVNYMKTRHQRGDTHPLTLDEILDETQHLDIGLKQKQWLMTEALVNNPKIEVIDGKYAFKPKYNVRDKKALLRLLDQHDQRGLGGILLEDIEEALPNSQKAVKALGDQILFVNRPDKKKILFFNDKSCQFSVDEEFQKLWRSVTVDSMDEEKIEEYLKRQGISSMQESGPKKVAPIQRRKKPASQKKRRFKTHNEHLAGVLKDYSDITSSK
UniProt Q7Z4V5: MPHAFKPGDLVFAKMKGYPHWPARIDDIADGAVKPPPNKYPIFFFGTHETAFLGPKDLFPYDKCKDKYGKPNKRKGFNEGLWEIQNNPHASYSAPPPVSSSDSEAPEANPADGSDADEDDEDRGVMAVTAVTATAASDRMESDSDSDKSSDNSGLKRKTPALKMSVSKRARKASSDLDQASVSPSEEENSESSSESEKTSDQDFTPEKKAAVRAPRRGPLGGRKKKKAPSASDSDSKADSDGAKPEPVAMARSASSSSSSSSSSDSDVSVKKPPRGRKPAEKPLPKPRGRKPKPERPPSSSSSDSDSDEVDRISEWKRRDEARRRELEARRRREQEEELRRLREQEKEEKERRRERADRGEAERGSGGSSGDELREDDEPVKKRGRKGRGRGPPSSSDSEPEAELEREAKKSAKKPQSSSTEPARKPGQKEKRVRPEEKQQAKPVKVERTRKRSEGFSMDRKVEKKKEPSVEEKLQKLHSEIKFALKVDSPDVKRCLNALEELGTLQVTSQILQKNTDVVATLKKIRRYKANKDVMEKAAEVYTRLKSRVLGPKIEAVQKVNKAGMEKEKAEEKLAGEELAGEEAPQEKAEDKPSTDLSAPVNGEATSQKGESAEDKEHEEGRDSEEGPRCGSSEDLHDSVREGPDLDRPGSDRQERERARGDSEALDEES
UniProt P08236: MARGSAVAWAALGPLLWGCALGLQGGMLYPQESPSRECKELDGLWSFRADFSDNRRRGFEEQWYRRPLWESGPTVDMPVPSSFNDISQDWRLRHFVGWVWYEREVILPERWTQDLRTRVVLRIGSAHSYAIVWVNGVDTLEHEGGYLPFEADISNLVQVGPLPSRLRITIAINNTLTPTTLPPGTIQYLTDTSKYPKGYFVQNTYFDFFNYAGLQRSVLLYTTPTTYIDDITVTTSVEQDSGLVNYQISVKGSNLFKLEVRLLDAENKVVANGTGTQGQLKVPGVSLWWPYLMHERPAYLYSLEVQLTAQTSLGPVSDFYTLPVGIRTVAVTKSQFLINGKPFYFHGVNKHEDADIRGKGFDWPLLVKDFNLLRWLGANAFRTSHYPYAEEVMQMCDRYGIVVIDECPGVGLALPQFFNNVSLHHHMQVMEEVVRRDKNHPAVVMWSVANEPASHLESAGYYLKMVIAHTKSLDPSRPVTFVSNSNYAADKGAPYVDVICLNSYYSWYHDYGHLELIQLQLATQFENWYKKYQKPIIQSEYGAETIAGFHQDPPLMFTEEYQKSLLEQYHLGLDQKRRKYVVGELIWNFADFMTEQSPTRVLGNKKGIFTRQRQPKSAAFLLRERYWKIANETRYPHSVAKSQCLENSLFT
UniProt P40939: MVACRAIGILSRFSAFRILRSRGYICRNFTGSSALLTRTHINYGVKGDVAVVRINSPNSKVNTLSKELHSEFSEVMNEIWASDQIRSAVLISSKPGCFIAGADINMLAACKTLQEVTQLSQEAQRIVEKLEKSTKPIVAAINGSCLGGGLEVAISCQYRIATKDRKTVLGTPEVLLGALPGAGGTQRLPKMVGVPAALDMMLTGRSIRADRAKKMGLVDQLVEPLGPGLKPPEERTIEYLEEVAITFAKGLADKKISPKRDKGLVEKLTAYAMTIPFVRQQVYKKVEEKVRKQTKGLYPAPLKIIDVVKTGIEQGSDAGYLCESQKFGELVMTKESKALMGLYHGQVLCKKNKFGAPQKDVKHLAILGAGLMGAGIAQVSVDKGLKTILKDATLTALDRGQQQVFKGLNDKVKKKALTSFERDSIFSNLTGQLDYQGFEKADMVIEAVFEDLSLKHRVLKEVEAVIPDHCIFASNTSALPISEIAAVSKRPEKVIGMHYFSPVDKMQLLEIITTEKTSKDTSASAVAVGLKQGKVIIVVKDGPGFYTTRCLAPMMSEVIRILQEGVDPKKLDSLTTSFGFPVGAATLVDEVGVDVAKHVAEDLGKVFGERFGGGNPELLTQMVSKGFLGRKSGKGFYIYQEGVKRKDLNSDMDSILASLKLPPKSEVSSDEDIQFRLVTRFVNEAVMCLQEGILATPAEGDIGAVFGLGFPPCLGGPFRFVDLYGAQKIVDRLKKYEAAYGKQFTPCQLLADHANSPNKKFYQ

vorinostat = compound: O=C(CCCCCCC(=O)Nc1ccccc1)NO [vorinostat]
Procedure, shortened: as §1

silmitasertib = compound: O=C(O)c1ccc2c(c1)nc(Nc1cccc(Cl)c1)c1ccncc12 [silmitasertib]
Procedure, shortened: as §1

[2] = compound: O=C1NC(=O)C(c2cnc3ccccn23)=C1c1cn2c3c(cc(F)cc13)CN(C(=O)N1CCCCC1)CC2
Procedure, shortened: as §1

entospletinib = compound: c1cn2cc(-c3ccc4cn[nH]c4c3)nc(Nc3ccc(N4CCOCC4)cc3)c2n1 [entospletinib]
Procedure, shortened: as §1

Measured: log2 fold change

HAUS1 (UniProt Q96CS2)
inactive: [1] 0.045 | vorinostat -0.042 | silmitasertib 0.02 | [2] 0.017 | entospletinib 0.001

HAGH (UniProt Q16775)
inactive: [1] 0.019 | vorinostat 0.151 | silmitasertib 0.01 | [2] 0.003 | entospletinib 0.018

H2AFY (UniProt O75367)
inactive: [1] 0.008 | vorinostat 0.142 | silmitasertib -0.029 | [2] -0.02 | entospletinib 0.079

GTF3A (UniProt Q92664)
inactive: [1] 0.029 | vorinostat -0.001 | silmitasertib 0.036 | [2] -0.018 | entospletinib -0.105

HDDC2 (UniProt Q7Z4H3)
inactive: [1] -0.076 | vorinostat 0.148 | silmitasertib 0 | [2] -0.01 | entospletinib 0.024

GTPBP10 (UniProt A4D1E9)
inactive: [1] 0.02 | vorinostat -0.085 | silmitasertib 0.138 | [2] -0.021 | entospletinib 0.028

GSPT1 isoform 3 (UniProt P15170)
inactive: [1] -0.013 | vorinostat 0.023 | silmitasertib -0.014 | [2] 0.005 | entospletinib 0.013

HACE1 (UniProt Q8IYU2)
inactive: [1] 0.183 | vorinostat -0.126 | silmitasertib -0.002 | [2] 0.084 | entospletinib 0.012

GSTK1 (UniProt Q9Y2Q3)
inactive: [1] 0.018 | vorinostat -0.037 | silmitasertib 0.01 | [2] 0.011 | entospletinib -0.01

GRSF1 (UniProt Q12849)
inactive: [1] 0.022 | vorinostat -0.012 | silmitasertib 0.021 | [2] -0.022 | entospletinib 0.019

GTSE1 (UniProt Q9NYZ3)
inactive: [1] 0.068 | vorinostat -0.18 | silmitasertib -0.074 | [2] 0.096 | entospletinib -0.012

HAUS6 (UniProt Q7Z4H7)
inactive: [1] -0.057 | silmitasertib 0.014 | [2] 0.007 | entospletinib 0.015
active: vorinostat -0.3

HDAC8 (UniProt Q9BY41)
inactive: [1] 0.057 | vorinostat -0.247 | silmitasertib 0.03 | [2] -0.064 | entospletinib 0.001

HAT1 (UniProt O14929)
inactive: [1] 0.022 | vorinostat -0.222 | silmitasertib -0.039 | [2] -0.008 | entospletinib -0.012

HARS (UniProt P12081)
inactive: [1] -0.031 | vorinostat -0.003 | silmitasertib 0.02 | [2] -0.054 | entospletinib 0.001

HDAC4 (UniProt P56524)
inactive: [1] -0.024 | vorinostat 0.019 | silmitasertib -0.066 | [2] -0.045 | entospletinib -0.008

GTF3C4 (UniProt Q9UKN8)
inactive: [1] -0.011 | vorinostat -0.043 | silmitasertib 0.016 | [2] -0.023 | entospletinib 0

H1-5 (UniProt P16401)
inactive: [1] 0.008 | vorinostat 0.154 | silmitasertib -0.024 | [2] 0.02 | entospletinib -0.004

GRWD1 (UniProt Q9BQ67)
inactive: [1] -0.016 | vorinostat -0.002 | silmitasertib -0.002 | [2] 0.02 | entospletinib -0.007

GYPC (UniProt P04921)
inactive: [1] 0.002 | vorinostat 0.047 | silmitasertib 0 | [2] 0.013 | entospletinib -0.025

HDGF (UniProt P51858)
inactive: [1] 0.024 | vorinostat 0.106 | silmitasertib -0.018 | [2] -0.02 | entospletinib -0.01

HAX1 (UniProt O00165)
inactive: [1] 0.044 | vorinostat -0.054 | silmitasertib 0.027 | [2] -0.003 | entospletinib -0.007

GSTO1 (UniProt P78417)
inactive: [1] -0.002 | vorinostat 0.109 | silmitasertib -0.009 | [2] -0.009 | entospletinib 0.011

GRIPAP1 (UniProt Q4V328)
inactive: [1] -0.01 | vorinostat 0.049 | silmitasertib 0.022 | [2] 0.002 | entospletinib -0.01

HCCS (UniProt P53701)
inactive: [1] -0.009 | vorinostat 0.073 | silmitasertib 0.003 | [2] 0.001 | entospletinib -0.016

GSTCD (UniProt Q8NEC7)
active: vorinostat -0.356
inactive: [1] -0.025 | silmitasertib 0.024 | [2] -0.027 | entospletinib -0.066

GTPBP3 isoform 2 (UniProt Q969Y2)
inactive: [1] -0.105 | vorinostat -0.042 | silmitasertib -0.029 | [2] 0.048 | entospletinib -0.074

GTF3C6 (UniProt Q969F1)
inactive: [1] -0.035 | vorinostat -0.134 | silmitasertib -0.005 | [2] 0.005 | entospletinib -0.062

GSE1 (UniProt Q14687)
inactive: [1] 0.029 | silmitasertib -0.006 | [2] -0.006 | entospletinib -0.017
active: vorinostat -0.286

GTPBP2 (UniProt Q9BX10)
active: vorinostat -0.289
inactive: [1] 0.029 | silmitasertib 0 | [2] -0.003 | entospletinib 0.056

H2AZ1 (UniProt P0C0S5)
inactive: [1] 0.061 | vorinostat 0.099 | silmitasertib 0.021 | [2] -0.015 | entospletinib 0.013

3 entries picked at random from those above:
HCCS (UniProt P53701)
inactive: [1] -0.009 | vorinostat 0.073 | silmitasertib 0.003 | [2] 0.001 | entospletinib -0.016

GSTO1 (UniProt P78417)
inactive: [1] -0.002 | vorinostat 0.109 | silmitasertib -0.009 | [2] -0.009 | entospletinib 0.011

H1-5 (UniProt P16401)
inactive: [1] 0.008 | vorinostat 0.154 | silmitasertib -0.024 | [2] 0.02 | entospletinib -0.004

The list continues.

UniProt H0YHG0
inactive: [1] 0.021 | vorinostat 0.103 | silmitasertib -0.029 | [2] -0.017 | entospletinib -0.021

HBQ1 (UniProt P09105)
inactive: [1] -0.084 | vorinostat 0.067 | silmitasertib -0.041 | [2] 0.094 | entospletinib -0.128

HCFC1 isoform 4 (UniProt P51610)
inactive: [1] -0.005 | vorinostat -0.068 | silmitasertib -0.039 | [2] -0.001 | entospletinib 0.005

GRAMD4 (UniProt Q6IC98)
inactive: [1] 0.229 | vorinostat -0.186 | silmitasertib -0.129 | [2] 0.149 | entospletinib 0.008

GTF2H3 (UniProt Q13889)
inactive: [1] -0.014 | vorinostat -0.022 | silmitasertib -0.033 | [2] 0.016 | entospletinib 0.042

HCLS1 (UniProt P14317)
inactive: [1] 0.008 | vorinostat 0.087 | silmitasertib -0.005 | [2] -0.029 | entospletinib 0.022

HDAC10 (UniProt Q969S8)
inactive: [1] 0.147 | vorinostat 0.211 | silmitasertib 0.156 | [2] -0.032 | entospletinib 0.053

GTF2E2 (UniProt P29084)
inactive: [1] 0 | vorinostat 0.04 | silmitasertib -0.016 | [2] 0.008 | entospletinib -0.001

HDGFL2 isoform 2 (UniProt Q7Z4V5)
inactive: [1] 0.02 | vorinostat 0.117 | silmitasertib -0.013 | [2] 0.01 | entospletinib -0.012

GULP1 (UniProt Q9UBP9)
inactive: [1] -0.071 | vorinostat -0.22 | silmitasertib 0.045 | [2] -0.145 | entospletinib -0.014

GTF2A2 (UniProt P52657)
inactive: [1] -0.01 | vorinostat 0.123 | silmitasertib -0.068 | [2] -0.046 | entospletinib 0.047

GTF2B (UniProt Q00403)
inactive: [1] 0.011 | vorinostat -0.071 | silmitasertib 0.044 | [2] -0.007 | entospletinib -0.005

GUSB (UniProt P08236)
inactive: [1] 0.021 | vorinostat 0.043 | silmitasertib 0.015 | [2] -0.026 | entospletinib -0.029

GRK2 (UniProt P25098)
active: vorinostat -0.225
inactive: [1] -0.055 | silmitasertib 0.066 | [2] -0.026 | entospletinib -0.006

GSN (UniProt P06396)
inactive: [1] 0.045 | vorinostat 0.068 | silmitasertib 0.004 | [2] -0.012 | entospletinib 0.005

HDLBP, A0A024R4E5
active: vorinostat -0.427
inactive: [1] 0.009 | silmitasertib -0.013 | [2] 0.004 | entospletinib 0.009

GSTP1 (UniProt P09211)
active: vorinostat -0.352
inactive: [1] -0.011 | silmitasertib 0.127 | [2] 0.04 | entospletinib -0.001

HBS1L (UniProt Q9Y450)
inactive: [1] -0.008 | vorinostat -0.212 | silmitasertib 0.038 | [2] -0.005 | entospletinib 0.028

HAUS7 isoform 2 (UniProt Q99871)
active: vorinostat -0.416
inactive: [1] -0.091 | silmitasertib -0.029 | [2] -0.026 | entospletinib -0.124

HBG2 (UniProt P69892)
inactive: [1] -0.123 | vorinostat 0.155 | silmitasertib -0.039 | [2] 0.029 | entospletinib -0.049

GSTT1 (UniProt P30711)
inactive: [1] -0.058 | vorinostat 0.167 | silmitasertib 0.005 | [2] 0.022 | entospletinib -0.049

HADHA (UniProt P40939)
inactive: [1] 0.052 | vorinostat -0.159 | silmitasertib -0.026 | [2] 0.302 | entospletinib 0.027
